Patent US20110117093A1 (published 2011)
Results are given in words; binding and its absence hold for the method and conditions named. Some binding calls cover weakened binding; strength is not graded here.

The chains behind the UniProt entries cited, without tags or fusion partners. Where a name states a change or a piece, a line headed by the entry shows the natural chain unless it says otherwise.
UniProt Q9Y275: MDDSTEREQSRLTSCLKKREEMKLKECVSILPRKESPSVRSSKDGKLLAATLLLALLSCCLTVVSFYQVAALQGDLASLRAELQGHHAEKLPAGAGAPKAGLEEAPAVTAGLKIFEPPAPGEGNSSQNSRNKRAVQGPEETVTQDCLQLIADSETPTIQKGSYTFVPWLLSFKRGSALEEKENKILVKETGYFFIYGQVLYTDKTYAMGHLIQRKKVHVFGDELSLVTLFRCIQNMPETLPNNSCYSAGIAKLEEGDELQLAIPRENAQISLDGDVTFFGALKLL

Key:
phage ELISA = substrate: B Lymphocyte Stimulator, human, soluble form (human) (UniProt Q9Y275); assay: phage ELISA
[1] = biological target: biotinylated B Lymphocyte Stimulator (soluble form) (human) (UniProt Q9Y275); assay: phage scFv, IM9 receptor binding inhibition
[2] = biological target: biotinylated B Lymphocyte Stimulator (soluble form) (human) (UniProt Q9Y275); assay: purified scFv, IM9 receptor binding inhibition

Measured: binding

B1: I067B10 (scFv)
scFv: QMQLVQSGAEVKKPGASVKVSCKASGYTFTSYYMHWVRQAPGQGLEWMGWINAGNSNTKYSQKFQGRVTITSDTSASTAYMELSGLRSEDTAVYYCARDRGAPNYDILTGYYAPAQGVAFDIWGKGTLATVSSGGGGSGGGGSGGGGSQSVLTQPPSVSAAPGQKVTISCSGSTSNIGNNYVSWYQQHPGKAPKLMIYDVSKRPSGVPDRFSGSKSGNSASLDISGLQSEDEADYYCAAWDDSLSEFLFGTGTKLTVLG
binds: all assays above
